Results as given in the supplement of paper PMC10849652.
The list shows a part of the results.

Chains of the proteins cited; added tags and fusions are not shown. Lines headed by an entry give the natural chain unless they say otherwise; changes in a name come on top.
UniProt Q5TGZ0: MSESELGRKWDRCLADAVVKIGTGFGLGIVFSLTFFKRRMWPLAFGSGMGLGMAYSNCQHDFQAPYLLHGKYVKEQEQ
UniProt Q9BQP7: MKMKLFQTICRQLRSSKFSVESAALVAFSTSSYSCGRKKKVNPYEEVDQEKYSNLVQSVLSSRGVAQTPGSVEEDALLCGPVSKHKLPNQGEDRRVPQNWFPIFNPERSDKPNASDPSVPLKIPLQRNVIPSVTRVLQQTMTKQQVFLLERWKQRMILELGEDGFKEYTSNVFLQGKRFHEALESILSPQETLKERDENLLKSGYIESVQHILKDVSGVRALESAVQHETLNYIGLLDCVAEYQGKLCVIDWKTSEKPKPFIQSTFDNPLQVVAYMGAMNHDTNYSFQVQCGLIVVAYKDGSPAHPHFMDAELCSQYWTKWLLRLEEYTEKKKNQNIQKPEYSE
UniProt Q9HC36: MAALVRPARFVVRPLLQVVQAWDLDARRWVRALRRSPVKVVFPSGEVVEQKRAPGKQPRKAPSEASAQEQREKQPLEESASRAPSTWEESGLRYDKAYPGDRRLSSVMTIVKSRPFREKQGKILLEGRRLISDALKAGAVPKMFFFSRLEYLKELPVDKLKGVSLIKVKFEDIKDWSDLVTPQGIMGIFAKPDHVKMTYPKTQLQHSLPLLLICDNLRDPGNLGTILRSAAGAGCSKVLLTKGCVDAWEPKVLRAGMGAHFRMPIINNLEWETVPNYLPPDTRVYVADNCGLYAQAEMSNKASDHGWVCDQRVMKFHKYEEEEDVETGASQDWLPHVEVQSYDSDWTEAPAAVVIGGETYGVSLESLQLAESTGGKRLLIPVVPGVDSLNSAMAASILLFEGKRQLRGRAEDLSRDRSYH
UniProt Q9HAP2: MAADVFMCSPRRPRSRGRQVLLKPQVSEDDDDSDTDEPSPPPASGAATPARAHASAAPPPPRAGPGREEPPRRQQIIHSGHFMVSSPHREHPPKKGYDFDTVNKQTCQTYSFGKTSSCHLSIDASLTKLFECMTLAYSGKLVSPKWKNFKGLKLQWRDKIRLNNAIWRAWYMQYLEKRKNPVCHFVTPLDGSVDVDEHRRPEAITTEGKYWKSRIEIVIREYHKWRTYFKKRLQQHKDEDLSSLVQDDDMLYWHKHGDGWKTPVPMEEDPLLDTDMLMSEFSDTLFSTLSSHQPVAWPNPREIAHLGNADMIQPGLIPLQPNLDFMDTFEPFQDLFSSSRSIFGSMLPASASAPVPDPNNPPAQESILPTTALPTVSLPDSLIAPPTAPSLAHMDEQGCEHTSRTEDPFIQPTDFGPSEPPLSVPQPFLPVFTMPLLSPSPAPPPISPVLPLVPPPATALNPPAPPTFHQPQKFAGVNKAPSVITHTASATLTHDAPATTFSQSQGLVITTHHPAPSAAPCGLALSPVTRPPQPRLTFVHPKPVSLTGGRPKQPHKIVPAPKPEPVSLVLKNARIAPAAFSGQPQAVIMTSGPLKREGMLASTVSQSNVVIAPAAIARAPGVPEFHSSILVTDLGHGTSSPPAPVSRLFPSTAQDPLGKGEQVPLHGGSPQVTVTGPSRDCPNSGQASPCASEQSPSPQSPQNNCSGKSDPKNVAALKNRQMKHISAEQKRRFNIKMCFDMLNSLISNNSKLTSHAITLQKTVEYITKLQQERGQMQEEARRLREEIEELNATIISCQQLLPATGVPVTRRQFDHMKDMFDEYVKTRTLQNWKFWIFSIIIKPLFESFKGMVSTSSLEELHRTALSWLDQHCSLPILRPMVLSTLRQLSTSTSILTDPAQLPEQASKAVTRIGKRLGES
UniProt Q9NZW5: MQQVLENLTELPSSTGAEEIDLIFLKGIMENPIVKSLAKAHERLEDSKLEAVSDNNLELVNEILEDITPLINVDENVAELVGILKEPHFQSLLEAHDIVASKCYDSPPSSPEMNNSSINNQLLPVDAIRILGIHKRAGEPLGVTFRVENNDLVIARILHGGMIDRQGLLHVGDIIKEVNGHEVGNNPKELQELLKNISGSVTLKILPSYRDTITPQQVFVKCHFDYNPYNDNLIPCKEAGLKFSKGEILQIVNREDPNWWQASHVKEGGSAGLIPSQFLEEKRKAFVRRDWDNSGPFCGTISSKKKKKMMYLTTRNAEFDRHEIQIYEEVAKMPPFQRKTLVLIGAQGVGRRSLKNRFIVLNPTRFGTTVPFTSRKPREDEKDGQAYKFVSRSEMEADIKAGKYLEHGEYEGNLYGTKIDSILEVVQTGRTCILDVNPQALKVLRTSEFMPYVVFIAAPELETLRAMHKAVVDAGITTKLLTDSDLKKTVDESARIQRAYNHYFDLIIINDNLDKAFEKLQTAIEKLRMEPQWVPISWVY
UniProt Q9UL63, whole entry, looked up: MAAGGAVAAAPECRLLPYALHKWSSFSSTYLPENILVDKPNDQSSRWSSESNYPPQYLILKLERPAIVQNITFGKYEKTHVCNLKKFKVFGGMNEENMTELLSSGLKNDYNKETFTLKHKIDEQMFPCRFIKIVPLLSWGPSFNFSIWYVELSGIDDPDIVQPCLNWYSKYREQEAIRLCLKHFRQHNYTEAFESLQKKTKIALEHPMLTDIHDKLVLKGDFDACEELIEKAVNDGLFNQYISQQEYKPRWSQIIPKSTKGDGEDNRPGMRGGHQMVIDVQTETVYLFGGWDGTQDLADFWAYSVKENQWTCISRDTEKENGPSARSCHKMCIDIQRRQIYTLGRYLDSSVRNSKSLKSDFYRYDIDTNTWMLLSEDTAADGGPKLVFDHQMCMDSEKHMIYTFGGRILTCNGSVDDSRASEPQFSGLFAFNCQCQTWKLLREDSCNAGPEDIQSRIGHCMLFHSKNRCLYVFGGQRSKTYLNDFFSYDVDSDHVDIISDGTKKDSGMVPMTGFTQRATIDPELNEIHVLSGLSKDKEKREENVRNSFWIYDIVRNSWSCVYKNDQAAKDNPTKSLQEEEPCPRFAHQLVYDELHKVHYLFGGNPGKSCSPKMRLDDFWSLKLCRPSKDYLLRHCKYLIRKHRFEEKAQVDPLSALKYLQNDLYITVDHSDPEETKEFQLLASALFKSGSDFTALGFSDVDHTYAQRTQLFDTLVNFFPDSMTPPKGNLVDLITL
UniProt O00566: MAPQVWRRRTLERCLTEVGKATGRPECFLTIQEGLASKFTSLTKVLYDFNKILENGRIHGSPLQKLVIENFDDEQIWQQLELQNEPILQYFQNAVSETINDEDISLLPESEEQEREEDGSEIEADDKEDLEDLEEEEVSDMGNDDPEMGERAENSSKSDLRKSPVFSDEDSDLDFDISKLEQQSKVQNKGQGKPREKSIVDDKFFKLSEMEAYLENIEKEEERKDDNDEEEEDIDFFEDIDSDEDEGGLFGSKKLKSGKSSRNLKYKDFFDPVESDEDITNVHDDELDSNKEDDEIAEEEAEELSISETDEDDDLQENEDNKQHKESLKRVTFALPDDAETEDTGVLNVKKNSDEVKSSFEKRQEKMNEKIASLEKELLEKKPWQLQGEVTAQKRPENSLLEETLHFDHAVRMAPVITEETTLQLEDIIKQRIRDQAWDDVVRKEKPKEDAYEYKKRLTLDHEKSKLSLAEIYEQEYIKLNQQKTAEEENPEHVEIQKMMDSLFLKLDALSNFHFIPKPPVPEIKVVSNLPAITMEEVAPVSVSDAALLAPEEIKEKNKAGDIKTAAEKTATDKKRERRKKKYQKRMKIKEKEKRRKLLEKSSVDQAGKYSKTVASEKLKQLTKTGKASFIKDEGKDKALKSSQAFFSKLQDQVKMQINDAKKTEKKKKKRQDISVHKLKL
UniProt Q9NZB8: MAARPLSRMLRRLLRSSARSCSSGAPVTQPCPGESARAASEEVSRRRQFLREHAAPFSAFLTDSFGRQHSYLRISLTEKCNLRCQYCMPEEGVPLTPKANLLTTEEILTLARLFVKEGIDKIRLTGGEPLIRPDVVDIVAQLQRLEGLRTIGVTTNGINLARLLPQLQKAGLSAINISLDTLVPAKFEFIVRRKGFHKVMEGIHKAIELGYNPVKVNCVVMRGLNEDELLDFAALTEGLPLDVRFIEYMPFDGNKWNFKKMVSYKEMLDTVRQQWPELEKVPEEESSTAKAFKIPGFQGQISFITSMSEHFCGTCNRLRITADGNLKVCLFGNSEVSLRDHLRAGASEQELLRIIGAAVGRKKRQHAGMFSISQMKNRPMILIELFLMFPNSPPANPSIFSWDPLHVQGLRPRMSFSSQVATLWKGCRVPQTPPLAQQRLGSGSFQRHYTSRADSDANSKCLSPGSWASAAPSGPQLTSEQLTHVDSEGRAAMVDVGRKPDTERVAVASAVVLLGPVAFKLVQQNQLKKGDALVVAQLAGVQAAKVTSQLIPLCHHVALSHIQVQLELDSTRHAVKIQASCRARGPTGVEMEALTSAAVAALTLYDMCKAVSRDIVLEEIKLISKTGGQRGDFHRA
UniProt Q70IA6: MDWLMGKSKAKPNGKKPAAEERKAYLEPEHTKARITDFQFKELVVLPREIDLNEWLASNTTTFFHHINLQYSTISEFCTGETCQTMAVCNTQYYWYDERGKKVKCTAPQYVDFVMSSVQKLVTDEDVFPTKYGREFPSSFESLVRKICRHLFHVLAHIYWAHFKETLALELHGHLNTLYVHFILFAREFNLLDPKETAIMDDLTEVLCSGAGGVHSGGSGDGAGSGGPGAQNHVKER
UniProt Q6WCQ1: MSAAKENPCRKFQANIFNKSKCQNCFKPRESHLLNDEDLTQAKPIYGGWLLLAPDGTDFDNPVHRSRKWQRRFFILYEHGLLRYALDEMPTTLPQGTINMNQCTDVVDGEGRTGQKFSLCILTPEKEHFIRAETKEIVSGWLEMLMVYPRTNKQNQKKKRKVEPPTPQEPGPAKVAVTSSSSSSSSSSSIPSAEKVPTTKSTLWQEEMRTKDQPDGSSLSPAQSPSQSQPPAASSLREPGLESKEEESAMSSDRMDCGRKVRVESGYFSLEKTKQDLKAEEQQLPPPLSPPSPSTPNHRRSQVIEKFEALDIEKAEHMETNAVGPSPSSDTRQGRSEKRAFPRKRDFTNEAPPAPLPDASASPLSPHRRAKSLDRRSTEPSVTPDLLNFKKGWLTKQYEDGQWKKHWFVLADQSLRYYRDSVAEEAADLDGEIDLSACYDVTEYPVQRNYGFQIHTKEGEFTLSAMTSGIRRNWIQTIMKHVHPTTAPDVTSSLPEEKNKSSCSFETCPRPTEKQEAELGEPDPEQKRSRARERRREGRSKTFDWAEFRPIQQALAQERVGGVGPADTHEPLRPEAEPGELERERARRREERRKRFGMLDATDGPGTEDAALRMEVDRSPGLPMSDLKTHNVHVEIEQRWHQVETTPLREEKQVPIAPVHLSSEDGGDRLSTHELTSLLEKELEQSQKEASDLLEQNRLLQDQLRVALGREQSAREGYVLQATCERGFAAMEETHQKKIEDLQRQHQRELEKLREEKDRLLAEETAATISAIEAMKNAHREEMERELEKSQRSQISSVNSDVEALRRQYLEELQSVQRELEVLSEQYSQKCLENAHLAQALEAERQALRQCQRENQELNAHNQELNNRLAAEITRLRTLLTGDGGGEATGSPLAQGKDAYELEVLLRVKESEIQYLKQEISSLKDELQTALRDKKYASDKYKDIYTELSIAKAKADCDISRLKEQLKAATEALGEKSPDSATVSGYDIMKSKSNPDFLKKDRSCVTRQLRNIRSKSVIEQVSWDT
UniProt Q9H3L0: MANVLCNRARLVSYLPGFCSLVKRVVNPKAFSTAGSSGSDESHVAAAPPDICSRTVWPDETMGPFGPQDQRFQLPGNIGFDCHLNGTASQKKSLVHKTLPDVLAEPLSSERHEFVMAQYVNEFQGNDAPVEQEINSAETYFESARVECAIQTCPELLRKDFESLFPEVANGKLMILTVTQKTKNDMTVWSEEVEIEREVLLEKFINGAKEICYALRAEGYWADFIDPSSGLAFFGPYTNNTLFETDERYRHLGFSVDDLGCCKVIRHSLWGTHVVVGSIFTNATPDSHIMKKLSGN
UniProt O95297: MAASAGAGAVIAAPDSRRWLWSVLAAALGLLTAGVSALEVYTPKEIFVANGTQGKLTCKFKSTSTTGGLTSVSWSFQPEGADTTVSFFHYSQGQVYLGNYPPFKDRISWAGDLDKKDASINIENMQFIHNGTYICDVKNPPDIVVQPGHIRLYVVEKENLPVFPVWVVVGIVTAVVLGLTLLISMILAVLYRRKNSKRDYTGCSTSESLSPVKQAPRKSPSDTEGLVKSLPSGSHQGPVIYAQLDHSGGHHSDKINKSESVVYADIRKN
UniProt Q9H081: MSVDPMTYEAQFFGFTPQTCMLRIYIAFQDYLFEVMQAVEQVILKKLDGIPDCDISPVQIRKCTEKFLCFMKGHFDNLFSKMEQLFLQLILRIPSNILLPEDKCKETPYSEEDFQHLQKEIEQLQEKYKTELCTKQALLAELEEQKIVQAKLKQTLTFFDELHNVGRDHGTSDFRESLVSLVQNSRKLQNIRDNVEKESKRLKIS
UniProt P10620: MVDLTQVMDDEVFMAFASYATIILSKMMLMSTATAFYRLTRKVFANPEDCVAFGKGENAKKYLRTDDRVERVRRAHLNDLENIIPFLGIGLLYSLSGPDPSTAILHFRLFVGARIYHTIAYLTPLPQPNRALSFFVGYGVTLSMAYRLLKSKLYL

Compound: C#Cc1cccc(Nc2ncnc3cc(OCCOC)c(OCCOC)cc23)c1 [erlotinib]
Experiment: log2 fold change, soluble protein after heating vs DMSO (PISA); higher = thermal stabilisation; K562 lysate, 10 uM; active = over 0.2 and 3.5 SD of the protein, either way, in both replicates (recomputed)
Method in brief: (§1)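 Dounce homogenisation of K562 pellets in PBS pH 7.4 with 1 mM MgCl2 produced a crude extract, used at 1 mg/mL protein. Exposure to 10 μM compound lasted 30 min, and aliquots were then heated for 3 min across 48°C-58°C, pooled and brought to 0.5% NP-40 at 4°C. The supernatant after 21,000xg for 90 min was quantified by TMTpro 16plex LC-MS/MS with channel sums equalised. Duplicate values are given as log-two fold change in thermal stability relative to solvent controls.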

log2 fold change, inactive:
MOB1B isoform 2 (UniProt Q7L9L4) -0.004
MINK1 (UniProt Q8N4C8) 0.057
MKRN2 (UniProt Q9H000) 0.017
MIF (UniProt P14174) 0.006
MOGS (UniProt Q13724) -0.018
MICOS10 (UniProt Q5TGZ0) -0.057
MICB, A0A140T979 0.022
MMTAG2 (UniProt Q9BU76) 0.048
MPST isoform 2 (UniProt P25325) 0.008
MRPL14 (UniProt Q6P1L8) 0.105
MRPL23 (UniProt Q16540) -0.033
MGME1 (UniProt Q9BQP7) 0
MRM3 (UniProt Q9HC36) 0.008
MLXIP (UniProt Q9HAP2) 0.011
MPP6 (UniProt Q9NZW5) -0.011
MMUT (UniProt P22033) -0.018
MKLN1 (UniProt Q9UL63) 0.006
MPHOSPH10 (UniProt O00566) -0.012
MOCS1 isoform 8 (UniProt Q9NZB8) -0.055
MOB2 isoform 3 (UniProt Q70IA6) -0.01
MORF4L1 isoform 2 (UniProt Q9UBU8) 0.028
MINPP1 (UniProt Q9UNW1) 0.004
MNX1 (UniProt P50219) -0.028
MLLT1 (UniProt Q03111) -0.038
MRPL19 (UniProt P49406) 0.02
MPRIP isoform 2 (UniProt Q6WCQ1) -0.001
MOCS3 (UniProt O95396) 0.047
MICAL3 (UniProt Q7RTP6) 0.024
MOB3A (UniProt Q96BX8) -0.067
MMADHC (UniProt Q9H3L0) 0.049
MPZL1 (UniProt O95297) -0.057
MIS12 (UniProt Q9H081) -0.009
MPLKIP (UniProt Q8TAP9) -0.074
MKRN1 (UniProt Q9UHC7) -0.039
MMAB (UniProt Q96EY8) -0.006
MON1B (UniProt Q7L1V2) 0.042
MGST1 (UniProt P10620) -0.041
MLF2 (UniProt Q15773) 0.003

Compound: C/C(=N\NC(=O)C1=CC(=CC=C1)S(=O)(=O)N2CCOCC2)/C3=C(C=CC(=C3)Cl)O
Experiment: as above
Method in brief: as §1

log2 fold change, inactive:
MOB1B isoform 2 (UniProt Q7L9L4) 0
MINK1 (UniProt Q8N4C8) 0.058
MKRN2 (UniProt Q9H000) -0.013
MIF (UniProt P14174) 0.003
MOGS (UniProt Q13724) -0.035
MICOS10 (UniProt Q5TGZ0) 0.047
MICB, A0A140T979 0.086
MMTAG2 (UniProt Q9BU76) -0.062
MPST isoform 2 (UniProt P25325) -0.005
MRPL14 (UniProt Q6P1L8) -0.051
MRPL23 (UniProt Q16540) 0.049
MGME1 (UniProt Q9BQP7) 0
MRM3 (UniProt Q9HC36) -0.025
MLXIP (UniProt Q9HAP2) 0.003
MPP6 (UniProt Q9NZW5) 0.005
MMUT (UniProt P22033) 0.017
MKLN1 (UniProt Q9UL63) 0.009
MPHOSPH10 (UniProt O00566) 0.017
MOCS1 isoform 8 (UniProt Q9NZB8) -0.002
MOB2 isoform 3 (UniProt Q70IA6) -0.148
MORF4L1 isoform 2 (UniProt Q9UBU8) 0.06
MINPP1 (UniProt Q9UNW1) -0.007
MNX1 (UniProt P50219) -0.011
MLLT1 (UniProt Q03111) -0.014
MRPL19 (UniProt P49406) 0.079
MPRIP isoform 2 (UniProt Q6WCQ1) 0.03
MOCS3 (UniProt O95396) 0.01
MICAL3 (UniProt Q7RTP6) -0.037
MOB3A (UniProt Q96BX8) -0.089
MMADHC (UniProt Q9H3L0) -0.005
MPZL1 (UniProt O95297) 0.068
MIS12 (UniProt Q9H081) -0.022
MPLKIP (UniProt Q8TAP9) -0.161
MKRN1 (UniProt Q9UHC7) -0.037
MMAB (UniProt Q96EY8) 0.047
MON1B (UniProt Q7L1V2) 0.029
MGST1 (UniProt P10620) -0.068
MLF2 (UniProt Q15773) 0.034
